Results taken from the supplement of paper PMC10849652.
Some of the results follow.

The chains behind the UniProt entries cited, without tags or fusion partners. Where a name states a change or a piece, a line headed by the entry shows the natural chain unless it says otherwise.
UniProt Q9ULT8: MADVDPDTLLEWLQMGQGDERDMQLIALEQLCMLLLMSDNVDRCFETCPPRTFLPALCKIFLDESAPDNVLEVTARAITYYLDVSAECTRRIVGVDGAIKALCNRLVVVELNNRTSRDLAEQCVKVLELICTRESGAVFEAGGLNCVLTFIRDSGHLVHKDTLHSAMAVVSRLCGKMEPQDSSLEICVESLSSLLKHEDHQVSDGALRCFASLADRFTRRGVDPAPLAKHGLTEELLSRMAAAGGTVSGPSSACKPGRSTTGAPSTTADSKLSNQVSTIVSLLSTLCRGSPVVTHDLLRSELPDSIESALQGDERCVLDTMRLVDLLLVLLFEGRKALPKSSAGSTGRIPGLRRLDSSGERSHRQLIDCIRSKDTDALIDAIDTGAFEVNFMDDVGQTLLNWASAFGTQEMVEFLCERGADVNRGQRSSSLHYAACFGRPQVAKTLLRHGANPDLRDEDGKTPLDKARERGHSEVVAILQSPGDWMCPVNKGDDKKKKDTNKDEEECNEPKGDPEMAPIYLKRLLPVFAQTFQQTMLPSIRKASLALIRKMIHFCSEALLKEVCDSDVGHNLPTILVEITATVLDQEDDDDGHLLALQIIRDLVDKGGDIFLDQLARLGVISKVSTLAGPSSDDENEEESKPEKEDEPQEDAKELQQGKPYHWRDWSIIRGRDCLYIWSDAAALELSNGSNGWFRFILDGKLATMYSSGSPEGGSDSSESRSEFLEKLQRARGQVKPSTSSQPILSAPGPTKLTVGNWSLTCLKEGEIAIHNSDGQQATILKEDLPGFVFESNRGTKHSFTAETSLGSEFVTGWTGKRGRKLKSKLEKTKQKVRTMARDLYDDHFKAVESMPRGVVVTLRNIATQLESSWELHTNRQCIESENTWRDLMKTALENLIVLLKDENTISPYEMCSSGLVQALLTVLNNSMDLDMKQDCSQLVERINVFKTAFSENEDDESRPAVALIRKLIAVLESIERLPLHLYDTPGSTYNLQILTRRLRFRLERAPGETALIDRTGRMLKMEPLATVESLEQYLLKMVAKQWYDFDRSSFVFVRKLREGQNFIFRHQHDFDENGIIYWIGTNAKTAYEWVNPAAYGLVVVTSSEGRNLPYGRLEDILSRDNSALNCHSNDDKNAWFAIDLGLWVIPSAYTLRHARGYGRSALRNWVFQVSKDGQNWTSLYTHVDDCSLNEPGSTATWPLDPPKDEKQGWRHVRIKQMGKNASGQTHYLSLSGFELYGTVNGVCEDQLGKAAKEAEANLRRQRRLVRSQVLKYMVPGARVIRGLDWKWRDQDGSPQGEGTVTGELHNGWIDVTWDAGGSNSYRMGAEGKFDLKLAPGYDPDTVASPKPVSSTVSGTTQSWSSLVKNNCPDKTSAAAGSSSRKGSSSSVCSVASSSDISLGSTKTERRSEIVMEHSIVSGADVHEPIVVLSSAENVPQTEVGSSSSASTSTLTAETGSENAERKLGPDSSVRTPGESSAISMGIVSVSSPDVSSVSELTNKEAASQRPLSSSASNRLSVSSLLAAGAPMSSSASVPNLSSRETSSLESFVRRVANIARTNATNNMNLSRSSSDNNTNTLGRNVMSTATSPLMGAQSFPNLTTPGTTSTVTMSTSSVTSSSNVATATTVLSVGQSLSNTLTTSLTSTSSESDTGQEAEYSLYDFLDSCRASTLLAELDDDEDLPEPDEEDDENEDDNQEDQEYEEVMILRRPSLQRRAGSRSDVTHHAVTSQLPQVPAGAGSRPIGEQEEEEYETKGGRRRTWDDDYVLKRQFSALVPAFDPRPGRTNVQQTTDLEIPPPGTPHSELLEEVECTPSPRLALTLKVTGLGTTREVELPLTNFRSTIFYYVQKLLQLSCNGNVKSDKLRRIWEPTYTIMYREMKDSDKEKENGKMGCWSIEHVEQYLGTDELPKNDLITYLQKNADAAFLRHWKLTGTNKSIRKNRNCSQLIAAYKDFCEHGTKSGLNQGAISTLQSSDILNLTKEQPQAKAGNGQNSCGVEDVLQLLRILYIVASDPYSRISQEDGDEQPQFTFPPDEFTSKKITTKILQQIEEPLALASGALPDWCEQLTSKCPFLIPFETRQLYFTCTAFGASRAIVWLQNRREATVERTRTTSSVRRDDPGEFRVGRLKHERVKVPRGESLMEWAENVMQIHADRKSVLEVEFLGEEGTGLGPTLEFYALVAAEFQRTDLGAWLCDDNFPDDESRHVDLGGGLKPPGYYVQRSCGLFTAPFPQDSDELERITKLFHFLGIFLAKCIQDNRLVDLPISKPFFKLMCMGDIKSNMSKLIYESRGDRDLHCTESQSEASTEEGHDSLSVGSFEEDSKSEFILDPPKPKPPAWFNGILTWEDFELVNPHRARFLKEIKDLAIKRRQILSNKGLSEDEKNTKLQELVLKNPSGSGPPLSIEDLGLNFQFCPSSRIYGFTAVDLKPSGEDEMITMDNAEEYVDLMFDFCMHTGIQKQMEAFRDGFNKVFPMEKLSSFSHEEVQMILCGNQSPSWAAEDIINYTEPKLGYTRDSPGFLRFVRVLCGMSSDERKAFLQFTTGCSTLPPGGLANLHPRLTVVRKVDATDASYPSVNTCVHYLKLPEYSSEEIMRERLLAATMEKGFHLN
UniProt P52655, whole entry, looked up: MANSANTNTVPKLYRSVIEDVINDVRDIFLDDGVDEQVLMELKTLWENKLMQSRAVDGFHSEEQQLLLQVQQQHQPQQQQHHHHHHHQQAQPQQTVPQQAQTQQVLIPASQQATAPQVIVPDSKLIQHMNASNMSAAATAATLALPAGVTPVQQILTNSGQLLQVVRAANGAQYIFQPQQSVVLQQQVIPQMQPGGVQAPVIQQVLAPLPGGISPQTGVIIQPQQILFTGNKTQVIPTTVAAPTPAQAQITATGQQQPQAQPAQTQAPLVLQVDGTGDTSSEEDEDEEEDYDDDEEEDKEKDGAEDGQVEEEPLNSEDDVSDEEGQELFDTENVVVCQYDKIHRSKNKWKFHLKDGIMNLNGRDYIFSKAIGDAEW
UniProt Q9H0R4: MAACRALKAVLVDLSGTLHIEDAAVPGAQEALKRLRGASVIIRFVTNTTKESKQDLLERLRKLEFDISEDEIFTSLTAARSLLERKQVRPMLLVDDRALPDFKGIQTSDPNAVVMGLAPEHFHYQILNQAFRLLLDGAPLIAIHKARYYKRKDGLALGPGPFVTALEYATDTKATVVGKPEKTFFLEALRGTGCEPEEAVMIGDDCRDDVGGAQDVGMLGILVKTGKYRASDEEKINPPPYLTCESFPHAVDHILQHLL
UniProt P55084: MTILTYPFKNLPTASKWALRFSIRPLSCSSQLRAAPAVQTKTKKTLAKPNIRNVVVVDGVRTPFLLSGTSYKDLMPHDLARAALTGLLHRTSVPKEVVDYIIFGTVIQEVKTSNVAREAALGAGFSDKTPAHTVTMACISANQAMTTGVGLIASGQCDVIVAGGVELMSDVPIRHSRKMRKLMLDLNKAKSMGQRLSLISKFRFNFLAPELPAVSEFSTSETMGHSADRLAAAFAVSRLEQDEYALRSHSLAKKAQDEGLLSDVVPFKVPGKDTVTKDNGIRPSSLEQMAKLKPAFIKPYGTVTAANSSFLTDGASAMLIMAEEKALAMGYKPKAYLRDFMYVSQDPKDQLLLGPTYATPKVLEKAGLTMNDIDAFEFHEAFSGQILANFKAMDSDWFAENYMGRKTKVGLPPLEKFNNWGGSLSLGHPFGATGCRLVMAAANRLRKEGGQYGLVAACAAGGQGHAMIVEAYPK
UniProt Q92664: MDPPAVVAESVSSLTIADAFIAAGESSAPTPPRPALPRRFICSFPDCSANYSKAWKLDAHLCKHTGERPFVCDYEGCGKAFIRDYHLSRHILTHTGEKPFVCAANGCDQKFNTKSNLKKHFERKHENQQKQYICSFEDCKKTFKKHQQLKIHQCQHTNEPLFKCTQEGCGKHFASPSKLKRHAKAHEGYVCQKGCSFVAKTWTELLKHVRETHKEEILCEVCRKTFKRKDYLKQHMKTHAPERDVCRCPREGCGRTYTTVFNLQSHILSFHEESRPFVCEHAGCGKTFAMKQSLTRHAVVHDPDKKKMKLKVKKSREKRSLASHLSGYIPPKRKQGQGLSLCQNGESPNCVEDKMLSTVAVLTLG
UniProt O14929: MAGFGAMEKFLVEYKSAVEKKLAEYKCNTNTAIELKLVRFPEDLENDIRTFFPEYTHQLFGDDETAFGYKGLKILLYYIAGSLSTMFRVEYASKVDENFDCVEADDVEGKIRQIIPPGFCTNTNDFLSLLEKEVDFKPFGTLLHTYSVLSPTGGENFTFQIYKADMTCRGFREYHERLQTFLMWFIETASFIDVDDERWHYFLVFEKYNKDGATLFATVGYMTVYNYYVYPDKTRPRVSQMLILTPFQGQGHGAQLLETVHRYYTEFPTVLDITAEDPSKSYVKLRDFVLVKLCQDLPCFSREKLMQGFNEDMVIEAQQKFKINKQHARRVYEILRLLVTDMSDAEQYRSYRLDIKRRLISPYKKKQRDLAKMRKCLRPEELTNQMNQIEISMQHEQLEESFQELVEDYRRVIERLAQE
UniProt P52657, whole entry, looked up: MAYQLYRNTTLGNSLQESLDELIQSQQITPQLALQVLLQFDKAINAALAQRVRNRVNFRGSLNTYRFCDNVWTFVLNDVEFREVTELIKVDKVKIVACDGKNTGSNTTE
UniProt Q13547, whole entry, looked up: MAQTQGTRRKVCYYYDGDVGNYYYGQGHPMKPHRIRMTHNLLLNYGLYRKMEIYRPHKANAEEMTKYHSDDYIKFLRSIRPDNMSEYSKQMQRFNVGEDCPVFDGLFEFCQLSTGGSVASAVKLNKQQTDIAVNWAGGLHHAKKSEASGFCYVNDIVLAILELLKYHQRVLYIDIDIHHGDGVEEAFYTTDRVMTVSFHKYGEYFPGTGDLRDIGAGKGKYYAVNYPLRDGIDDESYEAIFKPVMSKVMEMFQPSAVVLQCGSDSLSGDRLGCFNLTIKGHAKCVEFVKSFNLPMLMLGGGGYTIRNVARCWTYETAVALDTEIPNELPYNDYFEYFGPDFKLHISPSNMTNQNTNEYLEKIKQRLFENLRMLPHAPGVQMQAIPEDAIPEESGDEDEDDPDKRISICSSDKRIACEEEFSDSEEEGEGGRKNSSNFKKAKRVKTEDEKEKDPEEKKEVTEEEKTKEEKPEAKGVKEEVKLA
UniProt P02008: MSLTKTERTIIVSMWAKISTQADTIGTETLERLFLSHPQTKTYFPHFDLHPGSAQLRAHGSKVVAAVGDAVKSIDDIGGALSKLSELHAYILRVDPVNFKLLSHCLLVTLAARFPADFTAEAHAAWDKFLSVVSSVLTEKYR
UniProt Q9Y5Q9: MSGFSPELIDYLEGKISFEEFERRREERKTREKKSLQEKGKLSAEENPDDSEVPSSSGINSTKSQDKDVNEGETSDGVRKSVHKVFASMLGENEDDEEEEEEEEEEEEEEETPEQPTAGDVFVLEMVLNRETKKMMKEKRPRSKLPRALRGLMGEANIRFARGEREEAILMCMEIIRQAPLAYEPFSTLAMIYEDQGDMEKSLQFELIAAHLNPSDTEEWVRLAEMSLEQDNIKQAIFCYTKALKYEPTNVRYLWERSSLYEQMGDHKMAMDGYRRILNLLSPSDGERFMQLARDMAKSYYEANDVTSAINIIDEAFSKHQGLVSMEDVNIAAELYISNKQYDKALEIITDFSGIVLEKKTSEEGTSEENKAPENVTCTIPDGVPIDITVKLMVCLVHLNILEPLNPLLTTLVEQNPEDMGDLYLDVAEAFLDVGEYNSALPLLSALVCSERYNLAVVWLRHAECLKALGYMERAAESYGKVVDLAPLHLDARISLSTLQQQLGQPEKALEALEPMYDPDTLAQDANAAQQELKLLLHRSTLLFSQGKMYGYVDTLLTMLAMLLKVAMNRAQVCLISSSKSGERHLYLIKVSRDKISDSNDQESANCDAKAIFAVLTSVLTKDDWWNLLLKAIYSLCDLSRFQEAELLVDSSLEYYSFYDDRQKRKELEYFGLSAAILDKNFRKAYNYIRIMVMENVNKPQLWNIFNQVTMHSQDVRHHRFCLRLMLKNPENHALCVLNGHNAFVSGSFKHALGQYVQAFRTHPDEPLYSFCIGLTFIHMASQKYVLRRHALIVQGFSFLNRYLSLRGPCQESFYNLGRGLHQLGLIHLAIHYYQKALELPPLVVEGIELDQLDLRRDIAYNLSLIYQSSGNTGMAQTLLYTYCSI
UniProt Q15011: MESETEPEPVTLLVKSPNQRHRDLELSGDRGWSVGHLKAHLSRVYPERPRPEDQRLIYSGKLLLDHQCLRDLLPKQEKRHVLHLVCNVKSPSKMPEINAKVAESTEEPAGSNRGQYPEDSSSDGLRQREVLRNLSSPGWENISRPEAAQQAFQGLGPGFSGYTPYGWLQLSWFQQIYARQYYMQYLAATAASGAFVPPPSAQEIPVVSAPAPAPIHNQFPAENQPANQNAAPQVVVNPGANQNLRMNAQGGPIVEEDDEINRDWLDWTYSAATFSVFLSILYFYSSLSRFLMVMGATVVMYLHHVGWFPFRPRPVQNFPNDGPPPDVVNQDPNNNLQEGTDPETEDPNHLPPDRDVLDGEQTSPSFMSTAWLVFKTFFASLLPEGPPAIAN

Columns and labels:
Assay in all cases: log2 fold change, soluble protein after heating vs DMSO (PISA); higher = thermal stabilisation; K562 cells, 10 uM, 30 min; active = over 0.2 and 3.5 SD of the protein, either way, in both replicates (recomputed)
[1] = compound: CN1CCN(CCOc2cc(OC3CCOCC3)c3c(Nc4c(Cl)ccc5c4OCO5)ncnc3c2)CC1 [saracatinib]
In short: (§1)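 For each measurement, 10 μM compound was applied for 30 min to K562 cells at 2×10^6 cells/mL. Aliquots were heated for 3 min across 48°C-58°C, pooled, and extracted in PBS with 0.5% NP-40 at 4°C; the supernatant after 21,000xg for 90 min was soluble protein. This was quantified by TMTpro 16plex LC-MS/MS with channel sums equalised, and thermal stability was reported relative to control samples from duplicates, on a log2 fold-change scale.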

[2] = compound: CN1CCN(c2nc(C3=C(c4c[nH]c5ccccc45)C(=O)NC3=O)c3ccccc3n2)CC1 [sotrastaurin]
In short: as §1

[3] = compound: CN1CCc2c(c3ccccc3n2Cc2ccc(C(=O)NO)cc2)C1 [Tubastatin A]
In short: as §1

[4] = compound: CNC(=O)C1=CC=CC=C1NC2=NC(=NC=C2Cl)NC3=C(C=C(C=C3)N4CCOCC4)OC
In short: as §1

[5] = compound: CNC(=O)c1ccc(Nc2ncc(C(F)(F)F)c(NCc3nccnc3N(C)S(C)(=O)=O)n2)cc1 [defactinib]
In short: as §1

[6] = compound: CNCc1ccc(-c2[nH]c3cc(F)cc4c3c2CCNC4=O)cc1 [rucaparib]
In short: as §1

[7] = compound: CNc1nc(-c2ccc3c(N)n[nH]c3c2)cc(N2C[C@@H](C(=O)NC3CCCCC3)CC[C@H]2C)n1
In short: as §1

[8] = compound: COC(=O)N[C@@H](C)CNc1nccc(-c2cn(C(C)C)nc2-c2cc(Cl)cc(NS(C)(=O)=O)c2F)n1 [encorafenib]
In short: as §1

[9] = compound: COC(=O)[C@H](CCSC)NC(=O)C1=C(C=C(C=C1)NC[C@H](CS)N)C2=CC=CC=C2
In short: as §1

[10] = compound: COC1=CC=C(C=C1)CN2C=CC3=C2C=C(C=C3)C(=O)NO
In short: as §1

[11] = compound: CON(C)C(=O)N1N=C(c2cc(F)ccc2F)S[C@@]1(CCCN)c1ccccc1 [filanesib]
In short: as §1

[12] = compound: CO[C@H]1C[C@@H]2CC[C@@H](C)[C@@](O)(O2)C(=O)C(=O)N2CCCC[C@H]2C(=O)O[C@H]([C@H](C)C[C@@H]2CC[C@H](n3cnnn3)[C@H](OC)C2)CC(=O)[C@H](C)/C=C(\C)[C@@H](O)[C@@H](OC)C(=O)[C@H](C)C[C@H](C)/C=C/C=C/C=C/1C [zotarolimus]
In short: as §1

[13] = compound: COc1cc(C(=O)O)ccc1NC(=O)[C@@H]1N[C@@H](CC(C)(C)C)[C@](C#N)(c2ccc(Cl)cc2F)[C@H]1c1cccc(Cl)c1F [idasanutlin]
In short: as §1

[14] = compound: COc1cc(Nc2ncc3c(n2)-c2ccc(Cl)cc2C(c2c(F)cccc2OC)=NC3)ccc1C(=O)O [alisertib]
In short: as §1

[15] = compound: COc1cc2nc(-c3cc(F)ccc3O)nc(N[C@@H]3CNC[C@H]3C(C)(C)O)c2cc1OC
In short: as §1

[16] = compound: COc1cc2ncnc(Nc3ccc(F)c(Cl)c3)c2cc1OCCCN1CCOCC1 [gefitinib]
In short: as §1

[17] = compound: COc1cccc2cc(-c3nc([C@H]4CC[C@H](C(=O)O)CC4)n4ncnc(N)c34)[nH]c12
In short: as §1

[18] = compound: CS(=O)(=O)CCNCc1ccc(-c2ccc3ncnc(Nc4ccc(OCc5cccc(F)c5)c(Cl)c4)c3c2)o1 [lapatinib]
In short: as §1

[19] = compound: CS(=O)(=O)N1CCN(Cc2cc3nc(-c4cccc5[nH]ncc45)nc(N4CCOCC4)c3s2)CC1 [pictilisib]
In short: as §1

Measured: log2 fold change

HDDC2 (UniProt Q7Z4H3)
inactive: [1] 0.045 | [2] 0.042 | [3] 0.015 | [4] 0.007 | [5] -0.014 | [6] -0.014 | [7] 0.063 | [8] 0.014 | [9] -0.013 | [10] -0.098 | [11] -0.037 | [12] 0.049 | [13] -0.068 | [14] 0.04 | [15] -0.05 | [16] -0.022 | [17] 0.068 | [18] 0.037 | [19] 0.064

HECTD1 (UniProt Q9ULT8)
inactive: [1] -0.184 | [2] -0.066 | [3] 0.071 | [4] 0.033 | [5] -0.026 | [6] 0.056 | [7] -0.001 | [8] -0.154 | [9] -0.018 | [10] -0.039 | [11] 0.091 | [12] 0.023 | [13] 0.047 | [14] 0.087 | [15] -0.04 | [16] -0.016 | [17] -0.132 | [18] 0.096 | [19] 0.02

GTF2A1 (UniProt P52655)
inactive: [1] 0.048 | [2] 0.087 | [3] 0.003 | [4] -0.007 | [5] -0.038 | [6] -0.021 | [7] -0.003 | [8] -0.056 | [9] 0.032 | [10] -0.102 | [11] 0.031 | [12] 0 | [13] 0.012 | [14] -0.126 | [15] -0.069 | [16] 0.111 | [17] 0.043 | [18] 0.006 | [19] 0.012

HBA1 (UniProt P69905)
inactive: [1] -0.017 | [2] 0.036 | [3] 0.035 | [4] -0.01 | [5] -0.014 | [6] -0.036 | [7] 0.011 | [8] -0.043 | [9] -0.034 | [10] -0.037 | [11] 0.02 | [12] 0.068 | [13] -0.044 | [14] -0.093 | [15] -0.154 | [16] 0.032 | [17] 0.079 | [18] 0.036 | [19] -0.088

HDHD2 (UniProt Q9H0R4)
inactive: [1] -0.004 | [2] -0.077 | [3] -0.016 | [4] -0.017 | [5] 0 | [6] -0.049 | [7] -0.048 | [8] 0.016 | [9] -0.018 | [10] 0.048 | [11] -0.097 | [12] -0.027 | [13] 0.006 | [14] -0.06 | [15] -0.007 | [16] 0.024 | [17] 0.085 | [18] -0.03 | [19] -0.011

HADHB (UniProt P55084)
active: [7] 0.62
inactive: [1] -0.111 | [2] 0.011 | [3] 0.027 | [4] 0.064 | [5] -0.18 | [6] 0.131 | [8] 0.001 | [9] -0.223 | [10] 0.248 | [11] 0.094 | [12] 0.038 | [13] -0.263 | [14] -0.026 | [15] 0.217 | [16] 0.17 | [17] -0.085 | [18] 0.086 | [19] 0.383

GTF3A (UniProt Q92664)
inactive: [1] 0.019 | [2] -0.008 | [3] -0.072 | [4] -0.03 | [5] -0.18 | [6] 0.206 | [7] -0.005 | [8] -0.138 | [9] 0 | [10] 0.092 | [11] -0.138 | [12] 0.067 | [13] -0.018 | [14] 0.014 | [15] -0.225 | [16] -0.139 | [17] -0.006 | [18] 0.099 | [19] -0.042

HAT1 (UniProt O14929)
inactive: [1] 0.047 | [2] -0.058 | [3] 0.036 | [4] 0.05 | [5] -0.139 | [6] -0.066 | [7] -0.061 | [8] 0.064 | [9] -0.017 | [10] 0.14 | [11] -0.049 | [12] 0.075 | [13] 0.055 | [14] 0.019 | [15] 0.066 | [16] 0.008 | [17] -0.014 | [18] -0.002 | [19] -0.076

HEATR5B (UniProt Q9P2D3)
inactive: [1] 0.043 | [2] 0.008 | [3] 0.016 | [4] 0.022 | [5] -0.099 | [6] 0.028 | [7] 0.015 | [8] 0.041 | [9] -0.006 | [10] -0.006 | [11] -0.005 | [12] -0.071 | [13] 0 | [14] 0.006 | [15] 0.039 | [16] -0.045 | [17] 0.033 | [18] 0.018 | [19] -0.065

GTF2B (UniProt Q00403)
inactive: [1] -0.155 | [2] -0.103 | [3] 0.135 | [4] -0.013 | [5] -0.144 | [6] -0.017 | [7] 0.026 | [8] 0.023 | [9] -0.01 | [10] 0.046 | [11] -0.018 | [12] 0.054 | [13] -0.085 | [14] -0.037 | [15] -0.001 | [16] 0.02 | [17] -0.006 | [18] -0.047 | [19] -0.025

GTF2A2 (UniProt P52657)
inactive: [1] 0.034 | [2] 0.018 | [3] 0.026 | [4] -0.031 | [5] -0.025 | [6] -0.061 | [7] -0.025 | [8] -0.022 | [9] 0.018 | [10] -0.067 | [11] -0.043 | [12] -0.006 | [13] -0.036 | [14] 0.018 | [15] 0.044 | [16] -0.028 | [17] 0.032 | [18] -0.042 | [19] 0.041

HDGFL2 (UniProt Q7Z4V5)
inactive: [1] 0.01 | [2] 0.119 | [3] 0.013 | [4] -0.061 | [5] -0.07 | [6] -0.051 | [7] -0.058 | [8] -0.016 | [9] 0.036 | [10] 0.032 | [11] 0.056 | [12] -0.025 | [13] 0.012 | [14] -0.051 | [15] -0.013 | [16] 0.025 | [17] 0.04 | [18] -0.019 | [19] -0.004

HDAC1 (UniProt Q13547)
active: [3] 1.52
inactive: [1] -0.004 | [2] -0.026 | [4] -0.163 | [5] -0.15 | [6] 0.023 | [7] 0.04 | [8] -0.046 | [9] -0.062 | [11] 0.059 | [12] -0.019 | [13] -0.023 | [14] 0.031 | [15] 0 | [16] 0.025 | [17] 0.024 | [18] 0.141 | [19] 0.06

GUF1 (UniProt Q8N442)
inactive: [1] 0.089 | [2] -0.102 | [3] -0.034 | [4] -0.026 | [5] -0.205 | [6] -0.003 | [7] -0.144 | [8] -0.04 | [9] 0.004 | [10] -0.02 | [11] 0.02 | [13] -0.308 | [14] 0.065 | [15] 0.28 | [16] 0.064 | [17] 0.146 | [18] -0.083 | [19] 0.109

H2AFX (UniProt P16104)
inactive: [1] -0.123 | [2] 0.081 | [3] 0.025 | [4] -0.003 | [5] 0.53 | [6] 0.347 | [7] 0.089 | [8] -0.013 | [9] 0.233 | [10] -0.06 | [11] 0.393 | [12] -0.3 | [13] 0.484 | [14] -0.007 | [15] -0.136 | [16] 0.049 | [17] -0.361 | [18] 0.054 | [19] -0.215

HBZ (UniProt P02008)
inactive: [1] 0.022 | [2] 0.03 | [3] 0 | [4] -0.041 | [5] 0.011 | [6] -0.026 | [7] -0.006 | [8] -0.004 | [9] -0.025 | [10] 0.012 | [11] -0.003 | [12] 0.035 | [13] 0.045 | [14] -0.077 | [15] -0.055 | [16] 0.003 | [17] 0.093 | [18] 0.007 | [19] -0.006

GYS1 (UniProt P13807)
inactive: [1] -0.255 | [2] -0.286 | [3] 0.035 | [4] 0.107 | [5] 0.057 | [6] 0.077 | [7] 0.193 | [8] 0.176 | [9] -0.047 | [10] -0.045 | [11] 0.045 | [12] 0.124 | [13] 0.462 | [14] -0.026 | [15] -0.109 | [16] -0.006 | [17] -0.165 | [18] 0.013 | [19] 0.219

GTF3C3 (UniProt Q9Y5Q9)
inactive: [1] 0.105 | [3] 0.073 | [4] -0.008 | [6] 0.021 | [7] -0.157 | [8] 0.032 | [10] -0.003 | [14] 0.066 | [15] 0.135 | [16] -0.011 | [17] 0.083 | [18] -0.045 | [19] 0.045

HERPUD1 (UniProt Q15011)
inactive: [3] 0.132 | [4] 0.126 | [5] -0.115 | [9] -0.01 | [14] -0.082 | [15] -0.13 | [17] 0.154 | [18] -0.11

GSPT1 isoform 2 (UniProt P15170)
inactive: [16] -0.099

Copied from the entries so far (two entries):
GTF3C3 (UniProt Q9Y5Q9)
inactive: [1] 0.105 | [3] 0.073 | [4] -0.008 | [6] 0.021 | [7] -0.157 | [8] 0.032 | [10] -0.003 | [14] 0.066 | [15] 0.135 | [16] -0.011 | [17] 0.083 | [18] -0.045 | [19] 0.045

HERPUD1 (UniProt Q15011)
inactive: [3] 0.132 | [4] 0.126 | [5] -0.115 | [9] -0.01 | [14] -0.082 | [15] -0.13 | [17] 0.154 | [18] -0.11
